Reference: PubChem BioAssay AID540276 (National Center for Advancing Translational Sciences (NCATS), 2011)
Screen size: about 300,000 compounds; about 5,400 (1.8%) were called active. This list was built around the results that the source calls inconclusive (neither active nor inactive); the mix of calls is not that of the screen. Calls follow the shape of the full dose curve; tested in HEK293 cells. Potencies beside an inconclusive call are fits to weak or partial responses and may not hold up.

assay: qHTS for inhibitors of binding or entry into cells for Marburg Virus; conditions: Marburg virus pseudotyped entry inhibition, cell reporter; series mostly up to 37.8 µM
Potency is read from the fitted curve at half-maximal effect.

Row | SMILES | Potency
1 | CN(C)c1ccc(N=Nc2ccccc2C(=O)OCC(=O)NC2CCCC2)cc1 | inconclusive: 35.5 µM [inhibitor, single point]
2 | CC(C)(C)n1nc(-c2ccc(Cl)cc2)c2c(N)ncnc21 | inconclusive: 0.562 µM [inhibitor, partial curve, poor fit]
3 | COC(=O)C1=C(C)NC(C)=C(C(=O)OC)C1c1cc2cc(C)ccc2[nH]c1=O | inconclusive: 5.62 µM [activator, single point]
4 | CCOc1ccc(C(O)(c2ccccc2)C(CN2CCCC2)c2ccccc2)cc1 (centres undefined) | inconclusive: 11.2 µM [inhibitor, partial curve, poor fit]
5 | COc1cc(-c2nc(Cc3ccccc3Cl)no2)cc(OC)c1OC | inconclusive: 11.6 µM [inhibitor, partial curve, poor fit]
6 | Cc1nc(C)c(-c2csc(Nc3cccnc3)n2)s1 | inconclusive: 20.6 µM [inhibitor, partial curve, poor fit]
7 | O=C(C1CC1)N1CCc2cc(Br)cc(S(=O)(=O)N3CCN(c4cccc(Cl)c4)CC3)c21 | inconclusive: 10 µM [activator, single point]
8 | CCN(c1ccccc1)S(=O)(=O)c1ccc(OC)c(NC(=O)CNCCc2ccccc2)c1 | inconclusive: 15.8 µM [inhibitor, partial curve, poor fit]
9 | Nc1nonc1-c1noc(N2CCCCC2)n1 | inconclusive: 1.26 µM [activator, partial curve]
10 | Cc1ccc(NC(=O)Nc2ccc(C(=O)N3CCOCC3)cc2)cc1 | inactive
11 | CN(C[C@H](O)COc1ccc(OC[C@H](O)CN(C)C2CCCCC2)cc1)C1CCCCC1 | active: 10 µM
12 | COc1ccccc1N1CCN(C(=O)C2CCN(C(=O)c3cccc(Cl)c3)CC2)CC1 | inconclusive: 7.94 µM [inhibitor, partial curve, poor fit]
13 | CCN1C(=NCc2ccc3c(c2)OCO3)NC(c2ccccc2)C(C(=O)OC)=C1C (centres undefined) | inactive
14 | COc1ccc(-c2noc(CSc3nnc(-c4ccncc4)n3-c3ccc(OC)cc3)n2)cc1 | inactive
15 | CCCCc1ccc(NC(=O)c2ccc(NS(C)(=O)=O)cc2)cc1 | inactive
16 | C=CCN(C(=O)c1csnn1)C(C(=O)NCc1ccc(F)cc1)c1ccccc1F (centres undefined) | inconclusive: 8.91 µM [inhibitor, partial curve, poor fit]
17 | Cc1cccc(NC(=O)Cn2c(=O)oc3cc(S(=O)(=O)N4CCCCCC4)ccc32)c1 | inconclusive: 3.55 µM [activator, partial curve, poor fit]
18 | CN(C)c1ccc(C(=O)c2ccc(N(C)C)cc2)cc1 | inactive
19 | CCOC(=O)N1CCN(Cc2cc(Cl)c3cccnc3c2O)CC1 | inconclusive: 2.51 µM [inhibitor, full curve, poor fit]
20 | O=C(CSc1oc(-c2ccco2)nc1S(=O)(=O)c1ccccc1)NCC1CCCO1 (centres undefined) | inconclusive: 3.98 µM [activator, single point]
21 | CCOc1ccc(NC(=O)C/C(C)=N/NC(=O)Cc2cccs2)cc1 | inconclusive: 12.6 µM [activator, partial curve]
22 | CCCOc1ccc(-c2c(=O)n(O)c3ccccc3[n+]2[O-])cc1 | inconclusive: 12.6 µM [activator, single point]

Taken from above:
Entry for `CN(C)c1ccc(C(=O)c2ccc(N(C)C)cc2)cc1` under Potency: inactive
Entry for `O=C(C1CC1)N1CCc2cc(Br)cc(S(=O)(=O)N3CCN(c4cccc(Cl)c4)CC3)c21` under Potency: inconclusive: 10 µM [activator, single point]
Entry for `O=C(CSc1oc(-c2ccco2)nc1S(=O)(=O)c1ccccc1)NCC1CCCO1` (centres undefined) under Potency: inconclusive: 3.98 µM [activator, single point]

Later entries

Row | SMILES | Potency
23 | COc1ccc(C(C)=O)cc1COC(=O)c1cccnc1SC | inactive
24 | Cc1cc(SCC(=O)OCC(=O)N(C)C2CCS(=O)(=O)C2)c(C)cc1Br (centres undefined) | inactive
25 | Cc1ccccc1C1=NCC(=O)N(CC(=O)N2CCCCC2)c2sc(C)c(C)c21 | inconclusive: 32.6 µM [inhibitor, single point]
26 | O=C(c1ccco1)N1CCN(C(=S)Nc2cccc([N+](=O)[O-])c2)CC1 | inconclusive: 35.5 µM [inhibitor, single point]
27 | COc1cccc(N=Nc2c(N)[nH]n3c(=O)c4c(nc23)CCCC4)c1 | inconclusive: 11.2 µM [inhibitor, single point]
28 | COc1ccc2c(Cl)c(C(=O)NCc3ccco3)sc2c1 | inconclusive: 14.6 µM [activator, partial curve, poor fit]
29 | CC(C)CN(CC(C)C)CC(O)COc1ccccc1Br (centres undefined) | inconclusive: 35.5 µM [inhibitor, partial curve, poor fit]
30 | O=C(Nc1nnc(-c2ccc(F)cc2)o1)c1ccc(S(=O)(=O)N2CCOCC2)cc1 | active: 7.94 µM
31 | CC(C)CC(=O)N=C1SC2CS(=O)(=O)CC2N1Cc1ccccc1 (centres undefined) | inconclusive: 2.51 µM [activator, partial curve, poor fit]
32 | CCOc1ccc(N(Cc2ccc(C(=O)O)cc2)S(=O)(=O)c2ccc(C)cc2)cc1 | inconclusive: 22.4 µM [inhibitor, single point]
33 | CCC1CCCCN1CCCNC(=O)c1ccc2c(c1)c(C)c(C)n2C (centres undefined) | inconclusive: 12.6 µM [inhibitor, partial curve, poor fit]
34 | C=CCSc1n[nH]c(=O)n1-c1cccc(C(F)(F)F)c1 | inconclusive: 6.31 µM [inhibitor, single point]
35 | O=C(Nc1cccc(-c2nc3ccccc3[nH]2)c1)c1cccc(NC(=O)c2ccco2)c1 | active: 13 µM
36 | CCOc1ccc(CN2C(=O)c3ccccc3Sc3ccc(C(=O)NC4CCC(C)CC4)cc32)cc1 (centres undefined) | inconclusive: 11.2 µM [inhibitor, partial curve, poor fit]
37 | Cc1ccc(N=Nc2c(N)[nH]n3c(=O)cc(-c4ccccc4)nc23)cc1 | inconclusive: 6.31 µM [inhibitor, partial curve, poor fit]
38 | OC(CCCN1CCC(O)(c2ccc(Cl)cc2)CC1)c1ccc(F)cc1 (centres undefined) | inconclusive: 29.1 µM [inhibitor, single point]
39 | Cc1[nH]n(C(N)=S)c(=O)c1N=Nc1ccc([N+](=O)[O-])cc1Cl | inconclusive: 5.62 µM [activator, partial curve, poor fit]
40 | COc1cccc(-c2noc(Cn3nc(C)c([N+](=O)[O-])c3C)n2)c1 | inactive
41 | CC(=O)N1CCC(=NNc2nc3ccccc3[nH]2)CC1 | inconclusive: 11.2 µM [activator, partial curve, poor fit]
42 | Cc1cccc(Nc2nc(N)nc(-c3oc4ccccc4c3C)n2)c1 | inconclusive: 4.47 µM [inhibitor, partial curve]
43 | COc1ccc(C(O)P(=O)(OC(C)C)OC(C)C)c(OC)c1 (centres undefined) | inconclusive: 0.251 µM [activator, full curve, poor fit]
44 | COC(=O)c1ccc(NC(=O)CCOc2ccccc2)cc1 | inactive

Two compounds picked at random from the list so far:
Row | SMILES | Potency
32 | CCOc1ccc(N(Cc2ccc(C(=O)O)cc2)S(=O)(=O)c2ccc(C)cc2)cc1 | inconclusive: 22.4 µM [inhibitor, single point]
41 | CC(=O)N1CCC(=NNc2nc3ccccc3[nH]2)CC1 | inconclusive: 11.2 µM [activator, partial curve, poor fit]

(listing goes on)

Row | SMILES | Potency
45 | Cc1ccc(Cn2c(Cc3ccccc3)nc3ccccc32)cc1 | inconclusive: 10 µM [inhibitor, single point]
46 | Cn1c2ccc(F)cc2c2ncn(Cc3ccco3)c(=O)c21 | inactive
47 | CCc1ccccc1NC(=O)N1CCC(NC(=O)C(Cc2ccc(OC)c(OC)c2)NC(C)=O)CC1 (centres undefined) | inactive
48 | O=C1N/C(=N\N=C\c2ccccn2)SC1Cc1cccc(SC(F)F)c1 (centres undefined) | inconclusive: 3.98 µM [inhibitor, full curve]
49 | CCN(c1ccccc1)S(=O)(=O)c1ccc(Cl)c(NC(=O)CN2CCCCCC2)c1 | inconclusive: 11.2 µM [inhibitor, partial curve, poor fit]
50 | N#C/C(=N\Nc1ccccc1F)C(=N)N1CCCCC1 | inconclusive: 6.51 µM [activator, single point]
51 | COc1ccc(CC2(CO)CCN(Cc3ccc(OC(F)(F)F)cc3)CC2)cc1 | inconclusive: 35.5 µM [inhibitor, single point]
52 | Cc1cc(C)nc(NC(=O)CSc2nnnn2-c2ccccc2)n1 | inconclusive: 20.6 µM [activator, single point]
53 | Oc1c(C(Nc2ccccn2)c2ccccn2)ccc2cccnc12 (centres undefined) | inconclusive: 7.08 µM [inhibitor, partial curve, poor fit]
54 | CC(=O)OC[C@@H]1O[C@H](C/C=N\OC[C@@H](C)[C@H](OCc2ccccc2)C(C)C)C=C[C@@H]1OC(C)=O | inactive
55 | CCOc1ccc(C(=O)Nc2cc(-c3nc4ccccc4[nH]3)ccc2Cl)cc1[N+](=O)[O-] | active: 8.91 µM
56 | CCN(CC)S(=O)(=O)c1ccc(Cl)c(NC(=O)COC(=O)/C=C/c2ccc(O)c(OC)c2)c1 | inactive
57 | Cc1ccc2oc(=O)n(CCCOc3ccccc3C)c2c1 | inconclusive: 35.5 µM [inhibitor, single point]
58 | CC(=O)c1cccc(NC(=O)c2ccc(N(Cc3ccccc3C)S(C)(=O)=O)cc2)c1 | inconclusive: 17.8 µM [inhibitor, single point]
59 | O=C(NCc1ccccn1)c1nnc(Cc2ccc(Cl)cc2)o1 | inconclusive: 18.4 µM [activator, single point]
60 | COc1ccc(-c2csc(Nc3ccccc3)n2)cc1 | inconclusive: 11.2 µM [inhibitor, single point]
61 | COc1ccccc1N=Nc1[nH]c2ccc(C)cc2c1O | inconclusive: 1.78 µM [activator, partial curve, poor fit]
62 | CCOc1cc(CN2CCCCCC2)ccc1OC | inconclusive: 1.78 µM [inhibitor, partial curve, poor fit]
63 | CC(C)c1ccc(OCC(=O)N2CCCCCC2)c(Br)c1 | inconclusive: 5.62 µM [activator, single point]
64 | O=C(ONC1=NCCCCC1)c1c(F)cccc1F | inconclusive: 20 µM [inhibitor, partial curve, poor fit]
